A short description of this experiment: qHTS Assay to Find Inhibitors of Chronic Active B-Cell Receptor Signaling. The conditions noted are these: ABC-DLBCL IkBa-CBG/CBR reporter, luminescence ratio (green luciferase fused to IkBa over red control in TMD8 lymphoma cells), 4 h. Summed up:
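TMD8 ABC-DLBCL cells carrying doxycycline-inducible green luciferase fused to IkappaBalpha plus unfused red luciferase were exposed to compounds (up to 46 uM) for 4 hrs at 37C. Activity came from the overlap-corrected green/red luminescence ratio.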
(Quantitative high-throughput screening tests each substance at several concentrations.)

The mark [1] stands for this setting: measured here: CBR red luminescence, cell number.
Where [2] appears, read: measured here: IkBa-CBG green luminescence.

Some of the results follow. These are further read-outs of the screen, such as a control signal, another cell line or another target. No call is given for them. The list favours compounds with an active or inconclusive main result. Words in brackets tell the shape of the fitted curve; partial curves, single points and poor fits give uncertain potencies.

With `CCCCCNCC(=O)Nc1cccc(C(=O)Nc2cccc(C(F)(F)F)c2)c1`, the AC50 under setting [1] is 6.31 µM [falling, full curve, poor fit]. Regarding `Cc1ccc(NC(=O)C2CC(=O)Nc3ncnn32)cc1Cl` (centres undefined), the AC50 under setting [1] is 10 µM [falling, partial curve, poor fit]. Take `C=CCNC(=S)NNC(=O)c1ccco1`: the AC50 under setting [1] is 14.1 µM [rising, partial curve, poor fit]. The same measure, in the same setting: next, `CCc1nnc(NS(=O)(=O)c2ccc(NC(=S)NC(=O)/C=C/c3cccs3)cc2)s1`: 4.47 µM [falling, partial curve, poor fit]. Take `CC(=O)Nc1ccc(N2CCOCC2)c(Cl)c1`: the AC50 under setting [1] was 35.5 µM [rising, single point]. As for `O=C(O)c1ccc2c(c1)C(=O)N(Cc1ccccc1)C2=O`, the AC50 under setting [1] was 29.1 µM [rising, single point].

For the compound `CCO[C@H]1OC(C(=O)NCc2nc3ccccc3[nH]2)=C[C@@H](C2CC2)[C@@H]1CCCO`, the AC50 runs as follows: under setting [1], 25.1 µM [rising, partial curve, poor fit]; under setting [2], 12.6 µM [falling, partial curve, poor fit].

As to `COC(=O)c1cc(NS(=O)(=O)c2cccs2)cc(NS(=O)(=O)c2cccs2)c1`, under setting [1], the AC50 is 16.4 µM [falling, partial curve, poor fit]. For `NNc1nc2c(-c3ccc(F)cc3)nnn2c2ccccc12`, the AC50 under setting [1] was 0.0891 µM [falling, full curve]. As for `CCN(CC)S(=O)(=O)c1cccc(NC(=O)COC(=O)C2=COCCO2)c1`, the AC50 under setting [1] was 32.6 µM [falling, single point]. In the case of `CCN1C(=O)CC(c2ccco2)Sc2ccccc21` (centres undefined), the AC50 under setting [1] was 9.2 µM [rising, partial curve, poor fit]. Consider `Cc1ccc(C(=O)O)cc1-n1c(C)cc(C=O)c1C`, for which the half-maximal activity concentration (AC50) under setting [1] was 5.01 µM [rising, partial curve, poor fit]. On the same count and under the same terms, to `CCn1c(=S)[nH]c2cc(C(=O)OC)ccc2c1=O` belongs 23.1 µM [falling, single point]; to `OCCNCCCOc1ccc(Cl)cc1Br`, 35.5 µM [falling, single point]. For the compound `CCCCc1ccc(-c2ccc(C)cc2O)nc1`, the AC50 under setting [1] was 0.794 µM [rising, full curve].

On to `O=C(NN=C1CCCCCCC1)c1ccccn1`, for which the AC50 under setting [1] was 35.5 µM [falling, single point]. As for `O=C(NCC1CC1)c1ccc(Oc2cc(Cl)cc(Cl)c2)o1`, under setting [1], the AC50 was 3.55 µM [falling, full curve, poor fit]. As for `CCOCCCn1c(=NC(C)=O)c(C#N)cc2c(=O)n3cccc(C)c3nc21`, under setting [1], the concentration at half-maximal activity (AC50) was 7.08 µM [falling, full curve]. Consider `CCOC(=O)[C@H]1[C@H]2COc3ccc(Cl)cc3[C@@H]2N2C(=O)c3ccc(F)cc3NC(=O)[C@@]12C`, for which the AC50 is 20.6 µM [falling, partial curve] under setting [1] and 32.6 µM [rising, partial curve, poor fit] under setting [2]. Consider `COc1c(Cl)cc(Cl)cc1C(=O)Nc1ccc(NC(=O)c2cccs2)cc1`, for which the AC50 under setting [1] was 3.16 µM [rising, partial curve, poor fit]. The same measure, in the same setting: to `CN(C)S(=O)(=O)c1cc(NC(=O)CN2C(=O)NC3(CCCc4ccccc43)C2=O)ccc1Cl` (centres undefined) belongs 20.6 µM [falling, single point]; to `CNc1nc(Cl)nc(NC(C)(C)C)n1`, 25.1 µM [rising, single point]. On to `CN(C(=O)c1ccc(Cl)c([N+](=O)[O-])c1)C1(C)CCS(=O)(=O)C1` (centres undefined), for which the AC50 under setting [1] was 14.6 µM [falling, partial curve, poor fit]. Same read-out and setting: to `N=c1c2c(-c3ccccc3)c(-c3ccccc3)oc2ncn1Cc1ccco1` belongs 17.8 µM [falling, single point]; to `O=C(O)c1cc(C(=O)C2CCCCC2)c[nH]1`, 8.91 µM [falling, partial curve].

Take `Cc1ccc(NC(=O)CCl)c(C)c1`: the half-maximal activity concentration (AC50) under setting [1] was 5.62 µM [falling, partial curve, poor fit]. Take `Cc1ccc(-c2cc(C(=O)NCCc3ccccc3)c3ccccc3n2)cc1C`: the AC50 under setting [1] is 3.98 µM [rising, full curve]. As to `O=[N+]([O-])c1ccc2c(c1)c(-c1ccccc1)nc1nncn12`, under setting [1], the AC50 is 20 µM [falling, single point]. With `CCCNS(=O)(=O)c1ccc(CCC(=O)N2CCCC2)cc1`, the AC50 under setting [1] is 11.2 µM [rising, partial curve, poor fit]. Take `Nc1nonc1-n1nnc(C(=O)N/N=C/c2cc(Br)cs2)c1-c1ccccc1`: the AC50 under setting [1] was 2.24 µM [falling, partial curve, poor fit]. For the compound `COc1ccc(/C=C/C(=O)N2CCN(S(=O)(=O)c3ccccc3Br)CC2)cc1OC`, under setting [1], the AC50 is 7.31 µM [falling, partial curve, poor fit]. For the compound `CCn1c(CNc2ccc(F)cc2)nnc1SCC(=O)Nc1ccc(OC)cc1OC`, the AC50 under setting [1] is 11.2 µM [falling, partial curve, poor fit]. The same measure, in the same setting: to `COCc1cc(=O)n2c(-c3ccc(C)cc3)n[nH]c2n1` belongs 8.2 µM [falling, partial curve]; to `CC(=O)c1cnc2cc(-c3ccc(C)cc3)nn2c1C`, 5.17 µM [rising, full curve, poor fit]; to `CCOc1ccccc1Nc1sc(C(=O)c2ccc(Cl)cc2)c(N)c1C#N`, 3.16 µM [rising, partial curve]. Consider `COc1ccccc1NC(=S)NC(NC(=O)c1ccco1)C(Cl)(Cl)Cl` (centres undefined), for which, under setting [1], the AC50 was 25.9 µM [falling, partial curve, poor fit]. For `Cc1ccc(C(=O)NC=C(Cl)Cl)cc1`, the AC50 under setting [1] was 23.1 µM [rising, partial curve, poor fit].

Consider `COc1cccc(C2C(C(C)=O)=C(O)C(=O)N2CCc2c[nH]c3ccccc23)c1` (centres undefined), for which, under setting [1], the AC50 is 1.12 µM [rising, full curve, poor fit]. As for `CC(NC(=O)Nc1ncccn1)(C(F)(F)F)C(F)(F)F`, the AC50 under setting [1] is 2.59 µM [rising, full curve, poor fit]. `COc1ccc(C(=O)NNC(=O)C(Cc2ccc(O)cc2)NC(=O)c2ccccc2NC(=O)c2ccc(OC)cc2)cc1` (centres undefined): the AC50 under setting [1] is 18.4 µM [rising, partial curve, poor fit]. Consider `CCCN(S(=O)(=O)c1ccc(OCC)cc1)S(=O)(=O)c1cccs1`, for which, under setting [1], the AC50 was 4.11 µM [rising, full curve, poor fit].

As to `CSc1ccc(CN(C)C(=O)C2CCN(C(=O)Nc3ccccc3)CC2)cc1`, the AC50 under setting [1] is 25.9 µM [falling, partial curve]. As for `CCN(C(=O)COC(=O)Cc1cccc2ccccc12)C1CCS(=O)(=O)C1` (centres undefined), the AC50 under setting [1] is 20.6 µM [rising, single point]. The same measure, in the same setting: next, `O=C(NCc1ccc(F)cc1)C1CCN(S(=O)(=O)c2ccc3c(c2)OCCCO3)CC1`: 2.91 µM [rising, full curve, poor fit]; `NC(=S)NN=C1c2cc(OCCN3CCOCC3)ccc2-c2ccc(OCCN3CCOCC3)cc21`: 5.62 µM [falling, full curve]; `C/C(N)=C(/C#N)C(=O)COC(=O)CCSc1ccccc1`: 1.84 µM [falling, partial curve, poor fit].

Regarding `COc1ccc2[nH]c(=O)c(CN(Cc3ccccc3OC)Cc3nnnn3CC3CCCO3)cc2c1` (centres undefined), the half-maximal activity concentration (AC50) under setting [1] is 35.5 µM [falling, single point].

For the compound `CCCC1S/C(=N/N=C/c2ccc(C)cc2)N(Cc2ccc(OC)cc2)C1=O` (centres undefined), under setting [1], the AC50 is 0.00651 µM [rising, full curve, poor fit].

With `Cc1cc(C)n2nc(C(=O)Nc3c(C)nn(Cc4ccc(F)cc4)c3C)cc2n1`, the AC50 under setting [1] was 3.16 µM [rising, partial curve, poor fit]. Consider `Cc1onc(-c2c(Cl)cccc2Cl)c1C(=O)NC1C(=O)N2C1SC(C)(C)C2C(=O)O` (centres undefined), for which the AC50 under setting [1] was 35.5 µM [falling, single point]. In the case of `COc1ccccc1N1CCN(C(=O)CCNS(=O)(=O)c2cc(Br)cnc2N)CC1`, the AC50 under setting [1] was 35.5 µM [falling, single point]. Take `Cc1ccc(CSCC(=O)N/N=C/c2cccc(OC3CSC3)c2)cc1`: the AC50 under setting [1] was 3.26 µM [rising, full curve, poor fit]. Take `C/C(=N\NC(=O)c1cccc(N/N=C(\C)c2ccncc2)c1)c1ccncc1`: the AC50 under setting [1] was 11.2 µM [falling, partial curve]. Same read-out and setting: to `COc1cc([C@H]2c3[nH]c4ccccc4c3C[C@H]3C(=O)N4[C@@H](c5cc(OC)c(OC)c(OC)c5)c5[nH]c6ccccc6c5C[C@H]4C(=O)N23)cc(OC)c1OC` belongs 11.6 µM [rising, partial curve, poor fit]; to `COc1ccc(CN(Cc2ccc(C(=O)O)cc2)C(=S)Nc2cc(C)cc(C)c2)cc1OC`, 5.01 µM [falling, partial curve, poor fit]. For the compound `C[C@@H](OC(=O)c1[nH]cnc1C(=O)NCc1ccc(CNC(=O)OC(C)(C)C)cc1)c1ccccc1`, the AC50 under setting [2] was 3.26 µM [falling, partial curve, poor fit].

Turning to `CC(C)OC(=O)c1c(N)n(CCCN2CCOCC2)c2nc3ccccc3nc12`, under setting [1], the AC50 is 25.9 µM [falling, partial curve]. `O=C/C(=C\Nc1ccc(Br)cc1)c1nc2ccccc2o1`: the AC50 under setting [1] is 3.55 µM [rising, partial curve, poor fit]. The same measure, in the same setting: next, `CNc1c(N)c(=O)oc2ccccc12`: 22.4 µM [falling, partial curve]. With `CC(C)Oc1cc2oc(=O)c3c(c2cc1Cl)CCC3`, under setting [1], the half-maximal activity concentration (AC50) is 18.4 µM [rising, single point]. `Cc1nnc2sc(SCc3ccccc3Cl)nn2c1=O`: the AC50 under setting [1] was 11.2 µM [falling, partial curve]. Turning to `O=C(O)c1c2c(nc3ccccc13)/C(=C/c1ccccc1[N+](=O)[O-])CCC2`, the AC50 under setting [1] is 12.6 µM [rising, partial curve].

In general, AC50 refers to the concentration at which the activity in the assay is half-maximal.

(Values after PubChem BioAssay AID493014 (National Center for Advancing Translational Sciences (NCATS), 2011).)
